Experiment: general procedure: solution-phase peptide synthesis; N-hydroxysuccinimide/dicyclohexylcarbodiimide; isobutyl chloroformate/N-methylmo

| Substance | step yield (late stage modification step) [%] | step yield (coupling step) [%] |
| --- | --- | --- |
| N-(Z-Asp-Glu-Val-Asp)-aminoluciferin | 62 |  |
| N-[Z-Asp(OtBu)-Glu(OtBu)-Val-Asp(OtBu)]-aminoluciferin | 41 |  |
| Z-Asp(OtBu)-Glu(OtBu)-Val-Asp(OtBu)-OH |  | 56 |

From patent publication US7384758B2 (Promeaga Corporation, priority 2002, dated 2008)
